Measured values reported in article PMC11046792.

Molecular target: FLAG-ZNRF1 (pcDNA3.1-FLAG-ZNRF1, non-transmembrane region fragment)
Assay: co-IP; HEK293 cells transfected with tagged NCEH1 and ZNRF1 plasmids (1 µg, 6 h, then 48 h); interactions examined by immunoblotting

binding: binds
B1: HA-NCEH1 (pcDNA3.1-HA-NCEH1) (enzyme, UniProt Q8BLF1 1-408)
chain: MRSSCVLLAALLALAAYYVYIPLPSAVSDPWKLMLLDATFRGAQQVSNLIHSLGLNHHLIALNFIITSFGKQSARSSPKVKVTDTDFDGVEVRVFEGSPKPEEPLRRSVIYIHGGGWALASAKISYYDQLCTTMAEELNAVIVSIEYRLVPQVYFPEQIHDVIRATKYFLQPEVLDKYKVDPGRVGISGDSAGGNLAAALGQQFTYVASLKNKLKLQALVYPVLQALDFNTPSYQQSMNTPILPRHVMVRYWLDYFKGNYDFVEAMIVNNHTSLDVERAAALRARLDWTSLLPSSIKKNYKPIMQTTGNARIVQEIPQLLDAAASPLIAEQEVLEALPKTYILTCEHDVLRDDGIMYAKRLESAGVNVTLDHFEDGFHGCMIFTSWPTNFSVGIRTRNSYIKWLDQNL

These are yes or no findings as the source states them, for the method shown. Binding seen in cells or lysates may run through a third protein. Binding calls can cover weak binding; strength is not graded here. Where a sequence is shown, tags or fusion partners need not be part of it.
